The target in one experiment is FLAG-HOIP-WT (UniProt Q96EP0). As to the kind of experiment: co-IP; HOIP-deficient K562 cells reconstituted with FLAG-HOIP-WT or truncated FLAG-HOIP; IP of HOIP, western blot.
The target in a further experiment is HOIP-N102A (UniProt Q96EP0). Briefly: co-IP; same experiment as a7 (TNFR1-SC purified by FLAG-TNF from HOIP-deficient A549 cells reconstituted with HOIP-N102A), read for SPATA2 and HOIP-N102A, both in cells.
Experiment [1] has as its target TAP-tagged wild-type HOIP (UniProt Q96EP0). As to the kind of experiment: co-IP; HOIP-TAP complexes purified from reconstituted HOIP-deficient K562 cells, western blot.

Sequences of proteins named here, by UniProt entry; tags and fusion partners are left off. A change or cut given only in a name is not applied to a line headed by its entry.
UniProt Q96EP0: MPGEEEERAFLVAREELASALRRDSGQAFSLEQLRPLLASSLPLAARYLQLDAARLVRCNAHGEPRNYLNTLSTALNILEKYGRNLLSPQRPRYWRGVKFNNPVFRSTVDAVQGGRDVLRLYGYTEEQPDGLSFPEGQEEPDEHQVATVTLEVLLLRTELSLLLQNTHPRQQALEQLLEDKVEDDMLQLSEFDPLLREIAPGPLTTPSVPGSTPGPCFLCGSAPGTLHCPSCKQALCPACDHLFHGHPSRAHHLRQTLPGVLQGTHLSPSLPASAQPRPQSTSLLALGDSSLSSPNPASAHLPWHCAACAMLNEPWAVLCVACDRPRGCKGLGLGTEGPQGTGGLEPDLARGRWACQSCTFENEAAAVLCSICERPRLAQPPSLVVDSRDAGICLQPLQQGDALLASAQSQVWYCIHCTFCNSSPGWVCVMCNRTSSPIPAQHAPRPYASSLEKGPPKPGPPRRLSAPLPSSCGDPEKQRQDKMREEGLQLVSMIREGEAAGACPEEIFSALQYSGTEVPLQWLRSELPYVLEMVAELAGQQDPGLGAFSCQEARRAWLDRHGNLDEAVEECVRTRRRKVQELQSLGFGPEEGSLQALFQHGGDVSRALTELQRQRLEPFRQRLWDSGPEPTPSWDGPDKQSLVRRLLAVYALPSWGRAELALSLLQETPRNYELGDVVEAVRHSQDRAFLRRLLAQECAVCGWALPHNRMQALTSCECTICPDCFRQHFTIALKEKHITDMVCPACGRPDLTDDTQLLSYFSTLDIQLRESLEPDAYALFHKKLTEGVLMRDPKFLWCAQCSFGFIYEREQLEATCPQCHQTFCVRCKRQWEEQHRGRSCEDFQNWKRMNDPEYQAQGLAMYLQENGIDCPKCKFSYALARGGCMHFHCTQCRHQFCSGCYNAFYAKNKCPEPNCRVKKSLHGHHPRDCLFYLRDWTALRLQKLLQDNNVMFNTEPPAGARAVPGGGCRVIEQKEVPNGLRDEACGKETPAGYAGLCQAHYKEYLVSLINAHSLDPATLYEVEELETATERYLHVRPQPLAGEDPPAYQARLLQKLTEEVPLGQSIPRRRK

No constants are given. Whether binding was seen depends on the method and setting. Binding seen in cells or lysates may run through a third protein. Some binding calls cover weakened binding; strength is not graded here.

B1: SPATA2 (protein, UniProt Q9UM82 1-520)
chain: MGKPSSMDTKFKDDLFRKYVQFHESKVDTTTSRQRPGSDECLRVAASTLLSLHKVDPFYRFRLIQFYEVVESSLRSLSSSSLRALHGAFSMLETVGINLFLYPWKKEFRSIKTYTGPFVYYVKSTLLEEDIRAILSCMGYTPELGTAYKLRELVETLQVKMVSFELFLAKVECEQMLEIHSQVKDKGYSELDIVSERKSSAEDVRGCSDALRRRAEGREHLTASMSRVALQKSASERAAKDYYKPRVTKPSRSVDAYDSYWESRKPPLKASLSLRKEPVATDVGDDLKDEIIRPSPSLLTMASSPHGSPDVLPPASPSNGPALLRGTYFSTQDDVDLYTDSEPRATYRRQDALRPDVWLLRNDAHSLYHKRSPPAKESALSKCQSCGLSCSSSLCQRCDSLLTCPPASKPSAFPSKASTHDSLAHGASLREKYPGQTQGLDRLPHLHSKSKPSTTPTSRCGFCNRPGATNTCTQCSKVSCDACLSAYHYDPCYKKSELHKFMPNNQLNYKSTQLSHLVYR
As to B1, the binding result is “binds” with FLAG-HOIP-WT, “no binding” with HOIP-N102A and “binds” in experiment [1].
